Source: PubChem BioAssay AID1487 (National Center for Advancing Translational Sciences (NCATS), 2009)
Some of the results follow. The main result of the screen is listed elsewhere. These columns were measured beside it and carry no call. Compounds called inactive in the main read-out are mostly missing here. Potencies come from curve fits of mixed quality, noted in brackets.

Assay: qHTS Assay for Modulators of Lamin A Splicing
Settings: HeLa LMNA splicing GFP/RFP minigene ratio, 48 h
Method in brief: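 S3 HeLa cells stably expressing lamin A-EGFP splicing minigene plus DsRed2, 600 cells/well, 48 h compound exposure at 37C. Laser-scanning cytometry; analysed as GFP (500-530 nm)/RFP (575-640 nm) total intensity ratio; 0.5% DMSO vehicle.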

[1] = measured here: RFP viability control channel
[2] = measured here: GFP splicing reporter channel

O=S(=O)(c1cccc(NC(=S)N2CCN(c3ccccc3F)CC2)c1)C(F)F
AC50 [1]: 10 µM [rising, partial curve, poor fit]

Brc1ccc2nc(-c3ccncc3)c(NC3CCCC3)n2c1
AC50 [2]: 5.62 µM [falling, partial curve]

Cc1ccc(NS(=O)(=O)c2ccc(NC(=O)c3cccs3)cc2)c(C)c1
AC50 [2]: 11.2 µM [rising, partial curve]
AC50 [1]: 14.1 µM [rising, partial curve]

COc1ccc(-c2cnnc(N/N=C/c3c(C)nn(-c4ccccc4)c3Cl)n2)cc1
AC50 [2]: 5.62 µM [falling, single point]

CCCOc1ccc(/C=C/C(=O)Nc2ccc([N+](=O)[O-])cc2)cc1
AC50 [2]: 6.31 µM [rising, partial curve]
AC50 [1]: 6.31 µM [rising, partial curve]

CCCCc1c(C)nn(-c2nnc3c4ccccc4n(C)c3n2)c1C
AC50 [2]: 35.5 µM [rising, single point]
AC50 [1]: 17.8 µM [rising, single point]

COc1ccc(C(=O)c2sc3nc(C)cc(-c4cccs4)c3c2N)cc1
AC50 [1]: 4.47 µM [rising, partial curve, poor fit]

COCCn1c(C)cc(C(=O)CSc2nc3ccccc3s2)c1C
AC50 [2]: 11.2 µM [rising, single point]
AC50 [1]: 11.2 µM [rising, partial curve]

Cc1ccccc1-c1ccc2ncnc(N(C)Cc3ccco3)c2c1
AC50 [1]: 15.8 µM [falling, single point]

Cc1ccc(-c2cnco2)cc1
AC50 [2]: 4.47 µM [rising, full curve, poor fit]
AC50 [1]: 7.94 µM [rising, partial curve, poor fit]

CC(=O)OC(C(=O)NC1CCCCC1)c1ccc(Cl)c(Cl)c1 (centres undefined)
AC50 [1]: 0.447 µM [falling, full curve]

Cc1cc(Cl)c(S(=O)(=O)N2CCCC2)cc1OCC(=O)NC1CCCCC1
AC50 [2]: 20 µM [rising, partial curve, poor fit]
AC50 [1]: 11.2 µM [rising, partial curve]

Cn1nc(CC(=O)Nc2cccc3ncccc23)c2ccccc2c1=O
AC50 [1]: 7.08 µM [rising, partial curve]

O=C(C1CCCO1)N1CCN(C(=S)Nc2ccc(Cl)cc2)CC1 (centres undefined)
AC50 [1]: 14.1 µM [rising, single point]

CCOc1cccc(OCCn2cnc3ccccc3c2=O)c1
AC50 [2]: 31.6 µM [rising, single point]
AC50 [1]: 35.5 µM [rising, single point]

CCCC(=O)c1c(NC)cc(C)oc1=O
AC50 [1]: 0.562 µM [falling, full curve, poor fit]

COc1ccc(Cc2nnc(NC(=O)c3c(-c4ccccc4)noc3C)s2)cc1
AC50 [1]: 15.8 µM [rising, single point]

CCCCOc1ccc(C2NC(=O)NC(C)=C2C(C)=O)cc1OCC (centres undefined)
AC50 [2]: 0.0355 µM [rising, full curve, poor fit]

C=CCOc1ccc(C=Nc2cccc(Cl)c2)c(O)c1
AC50 [2]: 0.1 µM [falling, full curve, poor fit]

COc1ccc(Br)cc1CNc1ccc2[nH]c(=O)[nH]c2c1
AC50 [1]: 6.31 µM [falling, single point]

CCOC(=O)CNC(=O)c1ccc(C#CC2(O)CCCCC2)cc1
AC50 [2]: 35.5 µM [rising, single point]

CCOC(=O)c1c(N)sc(C(O)(C(F)(F)F)C(F)(F)F)c1-c1ccc(OC)cc1OC
AC50 [1]: 12.6 µM [rising, single point]

CS(=O)(=O)c1ccc2nc(NC(=O)c3ccc(N4CCCC4=O)cc3)sc2c1
AC50 [2]: 35.5 µM [falling, single point]
AC50 [1]: 11.2 µM [falling, partial curve, poor fit]

CCOc1ccc(N/C(C)=C\C(=O)c2ccc3c(c2)OCCO3)cc1
AC50 [1]: 25.1 µM [rising, single point]

Cc1ccc(S(=O)(=O)N2CCN(Cc3nc4ccccc4n3C)CC2)cc1
AC50 [2]: 1 µM [rising, partial curve]
AC50 [1]: 6.31 µM [rising, full curve]

CCN(CC)C(=O)Oc1cc(=O)n2c3c(cccc13)CCC2
AC50 [2]: 14.1 µM [rising, single point]
AC50 [1]: 1.41 µM [rising, partial curve]

CC1(C)C(c2ccccc2)=[N+]([O-])C2(CCCCC2=O)N1O (centres undefined)
AC50 [2]: 3.16 µM [falling, single point]

O=C(NC1=NCCS1)c1cc(-c2ccc(F)cc2)nc2ccccc12
AC50 [1]: 8.91 µM [rising, partial curve, poor fit]

CCn1cc(NC(=O)CCl)c(C)n1
AC50 [1]: 22.4 µM [falling, partial curve, poor fit]

Cc1nn(CCC#N)c2[nH]c(=O)cc(C(F)(F)F)c12
AC50 [2]: 0.398 µM [falling, partial curve, poor fit]

CCCCCn1c(CCCNC(=O)CC)nc2ccccc21
AC50 [1]: 0.126 µM [rising, full curve, poor fit]

COc1ccc(C(CC(=O)Nc2ccc(F)cc2)c2ccccc2)cc1 (centres undefined)
AC50 [2]: 14.1 µM [falling, single point]
AC50 [1]: 14.1 µM [falling, single point]

Cc1ccc(S(=O)(=O)NCCSCc2ccco2)cc1
AC50 [2]: 1.26 µM [rising, single point]

COC(=O)C(=C/C(C)=C/c1cccnc1)C(=O)OC
AC50 [1]: 35.5 µM [rising, single point]

COc1ccc(N(CC(=O)NC2CCCC2)C(=O)Cn2nnc(-c3ccc(OC)c(OC)c3)n2)cc1
AC50 [2]: 0.282 µM [falling, full curve, poor fit]
AC50 [1]: 0.0708 µM [falling, full curve, poor fit]

CN1C(=O)NC(c2ccc(O)cc2)C2=C1CN(c1cccc3ccccc13)C2=O (centres undefined)
AC50 [1]: 0.00501 µM [falling, full curve, poor fit]

COc1cccc(S(=O)(=O)NCc2ccc(C(=O)Nc3cccc(Cl)c3)cc2)c1
AC50 [1]: 17.8 µM [rising, single point]
